Data from patent US6767720.
No constants are given. Whether binding was seen depends on the method and setting. For some assays here: Binding seen in cells or lysates may run through a third protein. Some binding calls cover weakened binding; strength is not graded here. Sequences can lack the tags named with a protein.

By UniProt entry, the sequences of proteins in these tests, tags left out. Where a name states a change or a piece, a line headed by the entry shows the natural chain unless it says otherwise.
UniProt P04386: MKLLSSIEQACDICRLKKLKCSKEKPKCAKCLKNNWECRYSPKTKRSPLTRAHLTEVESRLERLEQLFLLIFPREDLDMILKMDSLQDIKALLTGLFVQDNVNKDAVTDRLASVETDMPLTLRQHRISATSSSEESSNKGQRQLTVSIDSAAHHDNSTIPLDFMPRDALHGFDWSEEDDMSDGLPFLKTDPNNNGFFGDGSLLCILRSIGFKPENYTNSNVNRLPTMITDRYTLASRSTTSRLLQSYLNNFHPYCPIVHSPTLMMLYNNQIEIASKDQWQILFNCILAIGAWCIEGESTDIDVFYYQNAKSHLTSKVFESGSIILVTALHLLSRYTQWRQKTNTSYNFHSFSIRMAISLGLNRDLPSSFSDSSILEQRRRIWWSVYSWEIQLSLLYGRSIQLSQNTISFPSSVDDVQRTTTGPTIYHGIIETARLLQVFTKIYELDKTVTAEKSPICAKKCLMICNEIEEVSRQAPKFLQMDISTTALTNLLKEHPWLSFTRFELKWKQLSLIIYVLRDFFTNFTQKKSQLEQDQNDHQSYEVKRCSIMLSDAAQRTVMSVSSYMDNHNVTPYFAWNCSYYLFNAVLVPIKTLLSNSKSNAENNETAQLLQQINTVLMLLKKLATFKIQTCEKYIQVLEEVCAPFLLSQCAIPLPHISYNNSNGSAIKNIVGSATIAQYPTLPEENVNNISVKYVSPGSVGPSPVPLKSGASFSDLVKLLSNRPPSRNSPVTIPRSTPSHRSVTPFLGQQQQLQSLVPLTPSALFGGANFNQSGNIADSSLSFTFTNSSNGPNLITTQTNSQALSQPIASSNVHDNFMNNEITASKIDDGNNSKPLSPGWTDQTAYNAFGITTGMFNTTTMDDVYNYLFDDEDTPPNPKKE

Assays:
[1] = biological target: T1, human αN-catenin fused to the GAL4-DBD in pGBT9 (plasmid pGBT9ANCTN) (human) (UniProt P04386+P26232); assay: yeast two-hybrid, strain Y190 (FIG. 11)
[2] = biological target: T1, human αN-catenin fused to the GAL4-DBD in pGBT9 (plasmid pGBT9ANCTN) (human); assay: yeast two-hybrid retransformation, strain HF7c, HIS3 and LacZ reporters
[3] = biological target: αN-catenin residues 4-535 fused to the GAL4-DBD (plasmid pGBT9ANCTN(EcoRI-PstI)) (human) (UniProt P04386+P26232); assay: yeast two-hybrid (FIG. 4)
[4] = biological target: T2, human αN-catenin expressed from plasmid pPNhANCTN in HEK293T cells (human) (UniProt P26232); assay: co-immunoprecipitation from cotransfected HEK293T cells, Western blot
T2 sequence (looked up): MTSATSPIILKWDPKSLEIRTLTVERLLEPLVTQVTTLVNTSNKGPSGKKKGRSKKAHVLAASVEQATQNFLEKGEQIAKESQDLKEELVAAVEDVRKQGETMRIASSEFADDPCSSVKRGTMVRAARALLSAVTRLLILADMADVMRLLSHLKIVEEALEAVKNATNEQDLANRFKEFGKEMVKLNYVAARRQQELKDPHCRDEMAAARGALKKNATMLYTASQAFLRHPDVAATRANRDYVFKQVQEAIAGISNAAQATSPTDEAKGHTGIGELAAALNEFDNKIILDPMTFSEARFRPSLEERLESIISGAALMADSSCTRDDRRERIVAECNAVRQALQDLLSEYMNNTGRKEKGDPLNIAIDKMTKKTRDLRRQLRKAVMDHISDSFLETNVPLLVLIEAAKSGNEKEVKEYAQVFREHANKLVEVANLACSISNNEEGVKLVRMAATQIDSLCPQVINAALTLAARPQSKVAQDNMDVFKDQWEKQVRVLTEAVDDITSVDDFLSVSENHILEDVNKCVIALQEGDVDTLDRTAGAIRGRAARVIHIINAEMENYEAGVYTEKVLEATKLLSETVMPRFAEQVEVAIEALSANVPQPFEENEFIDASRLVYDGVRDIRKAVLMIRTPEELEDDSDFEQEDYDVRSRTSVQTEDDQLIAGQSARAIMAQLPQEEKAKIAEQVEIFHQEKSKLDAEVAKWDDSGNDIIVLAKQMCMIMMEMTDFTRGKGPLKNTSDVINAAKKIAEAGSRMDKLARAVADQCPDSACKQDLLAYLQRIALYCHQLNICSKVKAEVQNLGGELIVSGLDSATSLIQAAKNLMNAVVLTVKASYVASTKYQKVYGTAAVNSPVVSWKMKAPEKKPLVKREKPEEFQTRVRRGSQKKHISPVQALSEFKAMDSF

[5] = biological target: T2, human αN-catenin expressed from plasmid pPNhANCTN in HEK293T cells (human); assay: co-immunoprecipitation from cotransfected HEK293T cells, Western blot (FIG. 14)
[6] = biological target: T2, human αN-catenin expressed from plasmid pPNhANCTN in HEK293T cells (human); assay: co-immunoprecipitation from cotransfected HEK293T cells
[7] = biological target: T1, human αN-catenin fused to the GAL4-DBD in pGBT9 (plasmid pGBT9ANCTN) (human); assay: yeast two-hybrid
[8] = biological target: T1, human αN-catenin fused to the GAL4-DBD in pGBT9 (plasmid pGBT9ANCTN) (human); assay: yeast two-hybrid, strain Y190 (FIG. 16)
[9] = biological target: T1, human αN-catenin fused to the GAL4-DBD in pGBT9 (plasmid pGBT9ANCTN) (human); assay: yeast two-hybrid, HIS3 and LacZ reporters

B1: ANC-2H01 initial two-hybrid clone (part of ANC-2H01 fused to the GAL4-AD, plasmid pGAD10ANC2H01) (protein, not shown: large carriers)
chain: IADGFNGIFSDHCYSVCSMRQPDLKYFDNKDDDSDTETSNDLPKFADGIKARNRNQNYLVPSPVLRILDHTAFSTEKSADIVICDEECDSPESVNQQTQEESPIEVHTAEDVPIAVEVHAISEDYDIETENNSSESLQDQTDEEPPAKLCKILDKSQALNVTAQQKWPLLRANSSGLYKCELCEFNSKYFSDLKQHMILKHKRTDSNVCRVCKESFSTNMLLIEHAKLHEEDPYICKYCDYKTVIFENLSQHIADTHFSDHLYWCEQCDVQFSSSSELYLHFQEHSCDEQYLCQFCEHETNDPEDLHSHVVNEHACKLIELSDKYNNGEHGQYSLLSKITFDKCKNFFVCQVCGFRSRLHTNVNRHVAIEHTKIFPHVCDDCGKGFSSMLEYCKHLNSHLSEGIYLCQYCEYSTGQIEDLKIHLDFKHSADLPHKCSDCLMRFGNERELISHLPVHETT
In the case of B1, the binding [1] is reported as “binds”, the binding [2] is reported as “binds” and the binding [3] is reported as “binds”.

B2: about full-length ANC-2H01 fused to the GAL4-AD (plasmid pGAD424ANC-2H01-FL) (protein, not shown: large carriers)
chain: MNEYPKKRKRKTLHPSRYSDSSGISRIADGFNGIFSDHCYSVCSMRQPDLKYFDNKDDDSDTETSNDLPKFADGIKARNRNQNYLVPSPVLRILDHTAFSTEKSADIVICDEECDSPESVNQQTQEESPIEVHTAEDVPIAVEVHAISEDYDIETENNSSESLQDQTDEEPPAKLCKILDKSQALNVTAQQKWPLLRANSSGLYKCELCEFNSKYFSDLKQHMILKHKRTDSNVCRVCKESFSTNMLLIEHAKLHEEDPYICKYCDYKTVIFENLSQHIADTHFSDHLYWCEQCDVQFSSSSELYLHFQEHSCDEQYLCQFCEHETNDPEDLHSHVVNEHACKLIELSDKYNNGEHGQYSLLSKITFDKCKNFFVCQVCGFRSRLHTNVNRHVAIEHTKIFPHVCDDCGKGFSSMLEYCKHLNSHLSEGIYLCQYCEYSTGQIEDLKIHLDFKHSADLPHKCSDCLMRFGNERELISHLPVHETT
With B2 the binding [1] was “binds”.

B3: E-tagged full-length ANC-2H01 protein (expression plasmid pEFBOSANC-2H01E), expressed in HEK293T cells (protein, not shown: small tags and cut ends)
chain: MNEYPKKRKRKTLHPSRYSDSSGISRIADGFNGIFSDHCYSVCSMRQPDLKYFDNKDDDSDTETSNDLPKFADGIKARNRNQNYLVPSPVLRILDHTAFSTEKSADIVICDEECDSPESVNQQTQEESPIEVHTAEDVPIAVEVHAISEDYDIETENNSSESLQDQTDEEPPAKLCKILDKSQALNVTAQQKWPLLRANSSGLYKCELCEFNSKYFSDLKQHMILKHKRTDSNVCRVCKESFSTNMLLIEHAKLHEEDPYICKYCDYKTVIFENLSQHIADTHFSDHLYWCEQCDVQFSSSSELYLHFQEHSCDEQYLCQFCEHETNDPEDLHSHVVNEHACKLIELSDKYNNGEHGQYSLLSKITFDKCKNFFVCQVCGFRSRLHTNVNRHVAIEHTKIFPHVCDDCGKGFSSMLEYCKHLNSHLSEGIYLCQYCEYSTGQIEDLKIHLDFKHSADLPHKCSDCLMRFGNERELISHLPVHETT
With B3 the binding [4] was “binds”, the binding [5] was “binds” and the binding [6] was “binds”.

B4: zinc fingers 6 to 9 of ANC-2H01 fused to the GAL4-AD (plasmid pACT2ANC2H01ZF6-9) (protein, not shown: large carriers)
chain: KNFFVCQVCGFRSRLHTNVNRHVAIEHTKIFPHVCDDCGKGFSSMLEYCKHLNSHLSEGIYLCQYCEYSTGQIEDLKIHLDFKHSADLPHKCSDCLMRFGNERELISHLPVHETT
For B4, the binding [7] was “binds” and the binding [8] was “binds”.

B5: zinc finger domain of ANC-2H01 fused to the GAL4-AD (plasmid pGAD424ANC-2H01-ZF) (protein, not shown: large carriers)
chain: LYKCELCEFNSKYFSDLKQHMILKHKRTDSNVCRVCKESFSTNMLLIEHAKLHEEDPYICKYCDYKTVIFENLSQHIADTHFSDHLYWCEQCDVQFSSSSELYLHFQEHSCDEQYLCQFCEHETNDPEDLHSHVVNEHACKLIELSDKYNNGEHGQYSLLSKITFDKCKNFFVCQVCGFRSRLHTNVNRHVAIEHTKIFPHVCDDCGKGFSSMLEYCKHLNSHLSEGIYLCQYCEYSTGQIEDLKIHLDFKHSADLPHKCSDCLMRFGNERELISHLPVHETT
For B5, the binding [9] was “binds”.

B6: zinc fingers 4 to 9 of ANC-2H01 fused to the GAL4-AD (plasmid pACT2ANC2H01ZF4-9) (protein, not shown: large carriers)
chain: LYWCEQCDVQFSSSSELYLHFQEHSCDEQYLCQFCEHETNDPEDLHSHVVNEHACKLIELSDKYNNGEHGQYSLLSKITFDKCKNFFVCQVCGFRSRLHTNVNRHVAIEHTKIFPHVCDDCGKGFSSMLEYCKHLNSHLSEGIYLCQYCEYSTGQIEDLKIHLDFKHSADLPHKCSDCLMRFGNERELISHLPVHETT
B6 was tested, and the binding [8] was “binds”.
